Measured values as given in US4146614A (State of Michigan, priority 1977, dated 1979).

Assay: Boc solid-phase peptide synthesis; Merrifield resin; dicyclohexylcarbodiimide
Details: whole synthesis

Glycylthreonylvalylleucine showed a crude yield (hydrochloride salt) of 60% yield.

N-α-acetyl-tyrosylthreonylvalyllleucine showed an isolated yield (hydrochloride) of 59% yield.
